Measured values taken from the supplement of paper PMC10849652.
The other results are listed elsewhere or left out.

By UniProt entry, the sequences of proteins in these tests, tags left out. Where a name states a change or a piece, a line headed by the entry shows the natural chain unless it says otherwise.
UniProt Q92544: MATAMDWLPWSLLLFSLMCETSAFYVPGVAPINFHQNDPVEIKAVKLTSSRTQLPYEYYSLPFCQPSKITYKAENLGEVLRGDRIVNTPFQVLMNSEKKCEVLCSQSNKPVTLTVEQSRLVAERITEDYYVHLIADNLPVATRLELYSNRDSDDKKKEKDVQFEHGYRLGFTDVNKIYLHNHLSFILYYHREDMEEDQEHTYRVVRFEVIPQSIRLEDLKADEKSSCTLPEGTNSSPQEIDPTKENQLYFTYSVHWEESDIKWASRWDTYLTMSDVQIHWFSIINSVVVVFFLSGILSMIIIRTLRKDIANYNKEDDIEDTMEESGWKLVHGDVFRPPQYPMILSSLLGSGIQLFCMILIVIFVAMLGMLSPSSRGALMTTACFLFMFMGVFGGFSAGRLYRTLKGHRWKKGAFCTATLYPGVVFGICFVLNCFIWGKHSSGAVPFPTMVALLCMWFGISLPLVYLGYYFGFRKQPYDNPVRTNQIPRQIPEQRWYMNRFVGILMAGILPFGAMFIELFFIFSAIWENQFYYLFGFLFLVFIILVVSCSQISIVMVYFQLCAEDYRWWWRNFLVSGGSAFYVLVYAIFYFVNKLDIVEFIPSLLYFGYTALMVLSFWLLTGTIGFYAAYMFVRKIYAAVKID
UniProt Q96JJ7: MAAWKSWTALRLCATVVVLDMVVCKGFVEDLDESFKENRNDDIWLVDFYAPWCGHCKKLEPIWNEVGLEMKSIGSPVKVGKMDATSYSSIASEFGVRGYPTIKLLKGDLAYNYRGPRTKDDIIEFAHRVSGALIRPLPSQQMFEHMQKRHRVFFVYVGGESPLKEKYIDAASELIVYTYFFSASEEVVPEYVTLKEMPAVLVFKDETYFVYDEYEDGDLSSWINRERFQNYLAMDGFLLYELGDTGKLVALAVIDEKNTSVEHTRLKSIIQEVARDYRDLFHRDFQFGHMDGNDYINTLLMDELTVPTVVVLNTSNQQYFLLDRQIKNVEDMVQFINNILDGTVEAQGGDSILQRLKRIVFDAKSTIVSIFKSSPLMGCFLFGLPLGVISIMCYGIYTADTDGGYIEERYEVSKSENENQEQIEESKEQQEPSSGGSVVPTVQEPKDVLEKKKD
UniProt Q9Y4G6: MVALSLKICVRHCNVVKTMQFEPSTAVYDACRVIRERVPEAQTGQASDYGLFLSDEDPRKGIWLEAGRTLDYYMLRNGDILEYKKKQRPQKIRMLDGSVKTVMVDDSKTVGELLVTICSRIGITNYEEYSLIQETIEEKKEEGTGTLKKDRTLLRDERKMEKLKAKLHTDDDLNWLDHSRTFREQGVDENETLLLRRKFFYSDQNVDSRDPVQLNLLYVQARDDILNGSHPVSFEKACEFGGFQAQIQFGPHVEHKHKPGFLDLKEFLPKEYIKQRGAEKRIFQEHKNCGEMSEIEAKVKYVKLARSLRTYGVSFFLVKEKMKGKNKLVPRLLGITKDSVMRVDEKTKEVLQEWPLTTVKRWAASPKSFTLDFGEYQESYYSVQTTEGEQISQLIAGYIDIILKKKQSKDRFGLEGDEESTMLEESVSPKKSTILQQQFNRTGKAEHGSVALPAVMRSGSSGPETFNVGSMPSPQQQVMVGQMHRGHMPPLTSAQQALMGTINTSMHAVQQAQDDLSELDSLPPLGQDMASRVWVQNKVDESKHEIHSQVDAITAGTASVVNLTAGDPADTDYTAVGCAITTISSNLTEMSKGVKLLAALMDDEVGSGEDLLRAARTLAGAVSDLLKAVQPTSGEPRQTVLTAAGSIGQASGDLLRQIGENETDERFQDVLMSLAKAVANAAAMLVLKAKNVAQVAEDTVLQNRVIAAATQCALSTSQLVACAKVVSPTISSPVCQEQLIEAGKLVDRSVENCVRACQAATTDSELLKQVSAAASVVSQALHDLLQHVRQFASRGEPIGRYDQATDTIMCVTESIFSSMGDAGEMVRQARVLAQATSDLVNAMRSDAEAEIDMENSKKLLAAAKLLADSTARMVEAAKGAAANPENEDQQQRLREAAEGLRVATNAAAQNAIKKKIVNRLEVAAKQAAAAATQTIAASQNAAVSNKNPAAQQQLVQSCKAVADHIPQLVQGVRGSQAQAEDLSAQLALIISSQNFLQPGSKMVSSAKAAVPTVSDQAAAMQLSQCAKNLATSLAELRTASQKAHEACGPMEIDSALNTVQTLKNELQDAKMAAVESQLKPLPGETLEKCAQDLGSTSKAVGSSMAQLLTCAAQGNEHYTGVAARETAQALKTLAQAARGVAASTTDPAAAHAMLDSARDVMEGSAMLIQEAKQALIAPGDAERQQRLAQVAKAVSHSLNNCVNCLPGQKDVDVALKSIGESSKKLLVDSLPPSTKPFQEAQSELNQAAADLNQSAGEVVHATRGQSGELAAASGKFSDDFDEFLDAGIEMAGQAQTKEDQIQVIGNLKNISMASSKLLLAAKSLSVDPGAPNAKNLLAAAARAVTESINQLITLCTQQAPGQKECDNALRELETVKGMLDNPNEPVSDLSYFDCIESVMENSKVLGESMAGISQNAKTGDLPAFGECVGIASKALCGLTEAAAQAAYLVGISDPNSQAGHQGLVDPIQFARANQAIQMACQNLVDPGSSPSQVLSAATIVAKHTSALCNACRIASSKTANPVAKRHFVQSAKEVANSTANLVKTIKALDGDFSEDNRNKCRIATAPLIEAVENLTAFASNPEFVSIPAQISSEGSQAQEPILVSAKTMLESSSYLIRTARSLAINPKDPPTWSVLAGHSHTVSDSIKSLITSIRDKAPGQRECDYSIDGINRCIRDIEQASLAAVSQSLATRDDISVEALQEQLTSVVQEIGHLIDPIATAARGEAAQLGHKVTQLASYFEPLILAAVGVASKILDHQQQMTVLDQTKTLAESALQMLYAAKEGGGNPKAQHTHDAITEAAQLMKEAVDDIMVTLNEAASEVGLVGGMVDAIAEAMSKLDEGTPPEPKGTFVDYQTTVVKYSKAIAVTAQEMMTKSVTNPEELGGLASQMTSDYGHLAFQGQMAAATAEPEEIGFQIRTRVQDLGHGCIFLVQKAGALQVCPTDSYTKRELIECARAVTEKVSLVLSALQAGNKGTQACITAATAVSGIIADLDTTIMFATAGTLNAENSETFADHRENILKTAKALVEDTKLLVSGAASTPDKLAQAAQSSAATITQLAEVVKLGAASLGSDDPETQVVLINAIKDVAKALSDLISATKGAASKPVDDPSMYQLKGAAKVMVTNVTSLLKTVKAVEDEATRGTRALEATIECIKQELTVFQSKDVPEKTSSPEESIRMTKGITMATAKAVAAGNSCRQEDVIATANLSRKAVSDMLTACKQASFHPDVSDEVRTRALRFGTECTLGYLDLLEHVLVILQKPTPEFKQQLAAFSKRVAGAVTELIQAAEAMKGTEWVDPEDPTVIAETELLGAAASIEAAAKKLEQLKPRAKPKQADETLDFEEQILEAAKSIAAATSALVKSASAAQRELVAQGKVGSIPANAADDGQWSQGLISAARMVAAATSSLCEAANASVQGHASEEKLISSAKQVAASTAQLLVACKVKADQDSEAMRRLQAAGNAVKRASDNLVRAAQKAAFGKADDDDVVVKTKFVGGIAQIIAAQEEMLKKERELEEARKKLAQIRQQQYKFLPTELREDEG
UniProt Q9BUB7: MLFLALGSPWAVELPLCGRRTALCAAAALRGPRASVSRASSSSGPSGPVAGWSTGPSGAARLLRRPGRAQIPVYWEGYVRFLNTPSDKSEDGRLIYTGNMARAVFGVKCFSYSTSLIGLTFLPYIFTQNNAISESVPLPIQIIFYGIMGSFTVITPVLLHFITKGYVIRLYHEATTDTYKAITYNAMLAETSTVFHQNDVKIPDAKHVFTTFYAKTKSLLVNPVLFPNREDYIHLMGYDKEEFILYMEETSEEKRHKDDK
UniProt Q9UKI8: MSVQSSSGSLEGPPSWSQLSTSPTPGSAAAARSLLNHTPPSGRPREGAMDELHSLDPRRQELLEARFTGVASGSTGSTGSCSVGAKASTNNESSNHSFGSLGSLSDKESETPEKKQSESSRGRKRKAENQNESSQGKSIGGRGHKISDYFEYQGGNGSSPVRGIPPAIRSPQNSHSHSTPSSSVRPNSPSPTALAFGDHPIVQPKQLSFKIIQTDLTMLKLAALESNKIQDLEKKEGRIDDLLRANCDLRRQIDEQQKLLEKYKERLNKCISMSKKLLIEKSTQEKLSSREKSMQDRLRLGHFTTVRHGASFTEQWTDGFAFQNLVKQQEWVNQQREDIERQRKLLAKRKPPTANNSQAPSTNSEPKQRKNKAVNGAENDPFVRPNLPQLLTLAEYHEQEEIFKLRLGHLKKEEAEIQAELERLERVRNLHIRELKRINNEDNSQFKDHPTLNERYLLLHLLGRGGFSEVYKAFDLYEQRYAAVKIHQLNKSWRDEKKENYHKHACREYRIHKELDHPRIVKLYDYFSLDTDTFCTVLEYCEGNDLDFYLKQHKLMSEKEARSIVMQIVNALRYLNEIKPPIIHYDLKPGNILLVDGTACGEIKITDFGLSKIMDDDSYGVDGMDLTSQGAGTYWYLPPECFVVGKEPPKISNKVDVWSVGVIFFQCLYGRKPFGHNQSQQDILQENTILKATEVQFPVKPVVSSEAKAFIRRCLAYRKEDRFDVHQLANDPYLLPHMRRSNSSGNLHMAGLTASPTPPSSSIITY
UniProt Q6ZT21: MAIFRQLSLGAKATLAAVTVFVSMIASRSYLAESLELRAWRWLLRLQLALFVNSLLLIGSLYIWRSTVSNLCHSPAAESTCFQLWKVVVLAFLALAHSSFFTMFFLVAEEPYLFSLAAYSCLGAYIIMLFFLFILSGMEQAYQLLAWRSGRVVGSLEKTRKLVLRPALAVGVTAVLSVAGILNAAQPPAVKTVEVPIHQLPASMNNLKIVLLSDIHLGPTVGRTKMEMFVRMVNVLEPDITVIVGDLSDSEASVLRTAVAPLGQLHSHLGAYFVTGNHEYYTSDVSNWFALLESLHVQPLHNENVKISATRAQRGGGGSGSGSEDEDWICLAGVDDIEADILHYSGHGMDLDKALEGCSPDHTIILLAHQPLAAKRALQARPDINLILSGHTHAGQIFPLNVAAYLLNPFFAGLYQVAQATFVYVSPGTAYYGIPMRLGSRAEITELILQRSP
UniProt Q9BVC6: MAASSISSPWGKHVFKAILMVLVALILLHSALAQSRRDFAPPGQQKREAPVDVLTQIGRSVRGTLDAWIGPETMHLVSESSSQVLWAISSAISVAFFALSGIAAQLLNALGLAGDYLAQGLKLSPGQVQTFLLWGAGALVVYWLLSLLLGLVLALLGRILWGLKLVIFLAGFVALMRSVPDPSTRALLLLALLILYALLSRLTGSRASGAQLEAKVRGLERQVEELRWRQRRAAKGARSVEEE
UniProt Q9NVV0: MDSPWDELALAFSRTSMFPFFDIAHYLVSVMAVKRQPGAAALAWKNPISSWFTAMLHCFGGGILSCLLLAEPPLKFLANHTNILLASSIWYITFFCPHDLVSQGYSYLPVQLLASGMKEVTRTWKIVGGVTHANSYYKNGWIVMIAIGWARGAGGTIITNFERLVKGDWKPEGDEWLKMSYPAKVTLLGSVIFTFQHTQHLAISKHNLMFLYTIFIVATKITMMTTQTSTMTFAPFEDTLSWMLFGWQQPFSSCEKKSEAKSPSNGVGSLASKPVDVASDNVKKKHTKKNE
UniProt Q9H0R3: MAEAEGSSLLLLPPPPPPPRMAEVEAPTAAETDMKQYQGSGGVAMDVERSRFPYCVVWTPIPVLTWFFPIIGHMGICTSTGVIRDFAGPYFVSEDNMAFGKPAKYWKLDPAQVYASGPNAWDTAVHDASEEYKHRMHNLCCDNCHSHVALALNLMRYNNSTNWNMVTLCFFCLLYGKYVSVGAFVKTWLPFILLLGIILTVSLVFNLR
UniProt Q96A57: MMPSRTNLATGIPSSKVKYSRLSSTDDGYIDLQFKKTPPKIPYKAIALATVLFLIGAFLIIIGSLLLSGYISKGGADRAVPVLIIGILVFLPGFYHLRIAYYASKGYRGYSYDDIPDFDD
UniProt Q9NWD8: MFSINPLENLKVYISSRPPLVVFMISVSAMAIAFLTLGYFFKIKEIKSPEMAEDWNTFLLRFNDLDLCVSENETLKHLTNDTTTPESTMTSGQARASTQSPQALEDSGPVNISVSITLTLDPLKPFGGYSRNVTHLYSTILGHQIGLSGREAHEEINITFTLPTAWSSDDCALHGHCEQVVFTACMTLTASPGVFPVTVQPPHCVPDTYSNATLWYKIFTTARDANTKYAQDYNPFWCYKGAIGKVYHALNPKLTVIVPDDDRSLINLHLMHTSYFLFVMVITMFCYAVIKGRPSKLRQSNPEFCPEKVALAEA
UniProt Q9Y320, whole entry, looked up: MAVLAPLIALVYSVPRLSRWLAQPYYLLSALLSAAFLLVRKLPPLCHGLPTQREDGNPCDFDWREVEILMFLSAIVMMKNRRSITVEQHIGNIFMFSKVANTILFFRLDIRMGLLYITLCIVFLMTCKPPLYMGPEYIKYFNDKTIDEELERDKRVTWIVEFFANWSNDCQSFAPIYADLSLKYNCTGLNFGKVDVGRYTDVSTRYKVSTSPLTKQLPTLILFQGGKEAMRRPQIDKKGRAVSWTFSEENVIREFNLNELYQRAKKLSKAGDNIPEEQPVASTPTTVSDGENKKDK

What was measured:
Assay in all cases: log2 fold change, soluble protein after heating vs DMSO (PISA); higher = thermal stabilisation; K562 cells, 10 uM, 30 min; active = over 0.2 and 3.5 SD of the protein, either way, in both replicates (recomputed)
[1] = compound: CC[C@@H]1C(=O)N(C)c2cnc(Nc3ccc(C(=O)NC4CCN(C)CC4)cc3OC)nc2N1C1CCCC1
How it was run: (§1)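 K562 cells (2×10^6 cells/mL) were treated with 10 μM compound for 30 min, and aliquots were heated for 3 min over 48°C-58°C. Pooled aliquots were extracted in PBS with 0.5% NP-40 at 4°C, and the supernatant after 21,000xg for 90 min was measured by TMTpro 16plex LC-MS/MS with channel sums equalised. Reported thermal stability, relative to control samples and from duplicates, is a log2 fold change.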

volasertib = compound: CC[C@@H]1C(=O)N(C)c2cnc(Nc3ccc(C(=O)N[C@H]4CC[C@H](N5CCN(CC6CC6)CC5)CC4)cc3OC)nc2N1C(C)C [volasertib]
How it was run: as §1

[2] = compound: CC[C@H](C)N1C=C(C2=C(C=C(C=C21)C3=CN=C(C=C3)N4CCNCC4)C(=O)NCC5=C(C=C(NC5=O)C)C)C
How it was run: as §1

epoxomicin = compound: CC[C@H](C)[C@@H](C(=O)N[C@@H]([C@@H](C)O)C(=O)N[C@@H](CC(C)C)C(=O)[C@]1(CO1)C)NC(=O)[C@H]([C@@H](C)CC)N(C)C(=O)C [epoxomicin]
How it was run: as §1

[3] = compound: CCn1c(C(=O)N(C2CC2)C2CC2)cc2c3c(ncn3C)c(Nc3cc(C)n(C)n3)nc21
How it was run: as §1

[4] = compound: CCn1cc(-c2ccnc3[nH]c(-c4cccc(CN(C)C)c4)cc23)c(-c2ccc(NC(=O)N(C)C)cc2)n1
How it was run: as §1

[5] = compound: CN(C)CC(=O)Nc1ccc2[nH]c(=O)c3ccccc3c2c1
How it was run: as §1

rosiglitazone = compound: CN(CCOC1=CC=C(C=C1)C[C@H]2C(=O)NC(=O)S2)C3=CC=CC=N3 (racemic) [rosiglitazone]
How it was run: as §1

[6] = compound: CN1C2=C(C3=C1C(=O)N(N=C3)CC4=CC(=CC=C4)N)SC(=C2)S(=O)C
How it was run: as §1

[7] = compound: CN1CCC(CNc2ccc3ncc(-c4cccc(OC(F)(F)F)c4)n3n2)CC1
How it was run: as §1

Target | log2 fold change [1] | log2 fold change (volasertib) | log2 fold change [2] | log2 fold change (epoxomicin) | log2 fold change [3] | log2 fold change [4] | log2 fold change [5] | log2 fold change (rosiglitazone) | log2 fold change [6] | log2 fold change [7]
TLE4 isoform 3 (UniProt Q04727) | inactive: 0.063 | inactive: -0.001 | inactive: -0.027 | inactive: 0.037 | inactive: 0 | inactive: -0.031 | inactive: -0.028 | inactive: 0.01 | inactive: -0.026 | inactive: -0.005
TMEM168 (UniProt Q9H0V1) | inactive: -0.067 | inactive: -0.074 | inactive: -0.066 | inactive: 0.08 | inactive: 0.048 | inactive: -0.016 | inactive: 0.006 | inactive: 0.037 | inactive: -0.007 | inactive: -0.013
TMEM126A (UniProt Q9H061) | inactive: -0.003 | inactive: 0.023 | inactive: 0.007 | inactive: -0.026 | inactive: 0.02 | inactive: -0.095 | inactive: 0.02 | inactive: 0.005 | inactive: -0.013 | inactive: -0.02
TM9SF4 (UniProt Q92544) | inactive: -0.225 | active: -0.484 | inactive: 0.024 | inactive: -0.055 | – | inactive: 0.052 | inactive: 0.001 | – | inactive: -0.05 | inactive: -0.084
TMX3 (UniProt Q96JJ7) | inactive: 0.031 | inactive: -0.025 | inactive: 0.013 | inactive: 0.014 | inactive: 0.01 | inactive: 0.004 | inactive: -0.011 | inactive: -0.003 | inactive: 0.017 | inactive: 0.048
TMEM205 (UniProt Q6UW68) | inactive: 0.033 | inactive: 0.075 | inactive: 0.038 | inactive: 0.035 | inactive: 0.07 | inactive: 0.051 | inactive: 0.068 | inactive: 0.003 | inactive: 0.018 | inactive: 0.278
TMUB2 (UniProt Q71RG4) | inactive: 0.054 | inactive: 0.127 | inactive: 0.03 | inactive: -0.029 | inactive: 0.024 | inactive: 0.102 | inactive: 0.036 | inactive: 0.055 | inactive: -0.003 | inactive: 0.07
TMEM263 (UniProt Q8WUH6) | active: -0.462 | inactive: -0.5 | inactive: -0.03 | inactive: 0.005 | – | inactive: -0.105 | inactive: 0.024 | – | inactive: -0.057 | active: -1.32
TLN2 (UniProt Q9Y4G6) | inactive: 0.076 | inactive: 0.012 | inactive: -0.016 | inactive: 0.065 | inactive: -0.023 | inactive: 0.038 | inactive: 0.02 | inactive: 0.045 | inactive: 0.113 | inactive: 0.071
TMEM70 (UniProt Q9BUB7) | inactive: 0.005 | inactive: 0.064 | inactive: -0.017 | inactive: 0.001 | active: 0.257 | inactive: -0.055 | inactive: 0.001 | – | inactive: -0.048 | active: -0.288
TMEM259 (UniProt Q4ZIN3) | inactive: -0.005 | inactive: 0.014 | inactive: -0.049 | inactive: 0.062 | inactive: 0.046 | inactive: -0.209 | inactive: -0.057 | inactive: 0.033 | inactive: 0.054 | inactive: -0.001
TLK1 (UniProt Q9UKI8) | inactive: 0.017 | inactive: -0.088 | inactive: 0.02 | inactive: -0.018 | – | inactive: -0.054 | inactive: 0.033 | – | inactive: -0.086 | inactive: -0.037
TMPPE (UniProt Q6ZT21) | inactive: 0.057 | inactive: -0.002 | inactive: -0.023 | inactive: -0.003 | inactive: 0.033 | inactive: -0.074 | inactive: 0.097 | inactive: 0.039 | inactive: -0.112 | inactive: 0.022
TMEM109 (UniProt Q9BVC6) | inactive: -0.03 | inactive: 0.064 | inactive: -0.051 | inactive: -0.001 | inactive: -0.001 | inactive: 0.02 | inactive: -0.042 | inactive: 0.009 | inactive: -0.036 | inactive: 0.039
TMEM123 (UniProt Q8N131) | inactive: -0.068 | inactive: 0.02 | inactive: -0.08 | inactive: -0.031 | inactive: 0.007 | – | inactive: -0.047 | inactive: -0.034 | inactive: -0.013 | –
TMED9 (UniProt Q9BVK6) | inactive: 0.066 | inactive: 0.049 | inactive: 0.009 | inactive: 0.008 | inactive: -0.023 | inactive: 0.045 | inactive: 0.005 | inactive: -0.013 | inactive: -0.069 | inactive: -0.016
TMEM38B (UniProt Q9NVV0) | inactive: 0.025 | inactive: 0.07 | inactive: -0.092 | inactive: 0 | inactive: 0 | inactive: -0.024 | inactive: -0.003 | inactive: 0.024 | inactive: -0.002 | inactive: 0.041
TMEM189-UBE2V1 (UniProt I3L0A0) | inactive: 0.054 | inactive: 0.056 | inactive: -0.137 | inactive: -0.023 | – | inactive: 0.048 | inactive: 0 | – | inactive: -0.035 | inactive: -0.009
TMEM106B (UniProt Q9NUM4) | inactive: 0.025 | inactive: -0.032 | inactive: -0.05 | inactive: -0.11 | – | inactive: -0.007 | inactive: -0.05 | – | inactive: 0.012 | inactive: -0.13
TMEM165 (UniProt Q9HC07) | inactive: -0.002 | inactive: 0.06 | inactive: 0.018 | inactive: 0.013 | inactive: 0.026 | inactive: -0.005 | inactive: -0.068 | inactive: -0.011 | inactive: 0.018 | inactive: 0.039
TMEM222 (UniProt Q9H0R3) | inactive: 0.072 | inactive: 0.042 | inactive: 0.019 | inactive: 0.079 | inactive: -0.047 | inactive: -0.011 | inactive: 0.198 | inactive: -0.027 | inactive: 0.095 | inactive: -0.057
TMEM230 isoform 2 (UniProt Q96A57) | inactive: 0.017 | inactive: 0.013 | inactive: -0.005 | inactive: 0.03 | inactive: 0.085 | inactive: -0.045 | inactive: -0.042 | inactive: 0.046 | inactive: 0.035 | inactive: 0.025
TMEM248 (UniProt Q9NWD8) | inactive: 0.204 | inactive: 0.078 | inactive: -0.083 | inactive: 0.099 | inactive: 0.017 | inactive: 0.031 | inactive: 0 | inactive: 0.001 | inactive: -0.236 | inactive: 0.078
TM9SF1 (UniProt O15321) | inactive: -0.216 | inactive: -0.232 | inactive: -0.039 | inactive: -0.024 | inactive: -0.031 | inactive: -0.04 | inactive: 0.028 | inactive: 0.092 | inactive: -0.05 | inactive: -0.179
TMF1 (UniProt P82094) | inactive: 0.05 | inactive: -0.017 | inactive: -0.047 | inactive: 0.02 | inactive: 0.013 | inactive: -0.01 | inactive: -0.018 | inactive: -0.015 | inactive: 0.003 | inactive: 0.06
TMX2 (UniProt Q9Y320) | inactive: 0.04 | inactive: -0.006 | inactive: 0.007 | inactive: 0.066 | inactive: 0.025 | inactive: -0.066 | inactive: 0.037 | inactive: 0.052 | inactive: -0.079 | inactive: 0.025
TNFAIP1 (UniProt Q13829) | inactive: 0.003 | inactive: 0.023 | inactive: 0.034 | inactive: 0.022 | inactive: 0.04 | – | inactive: 0.136 | inactive: 0 | inactive: -0.002 | –
TMEM192 (UniProt Q8IY95) | inactive: -0.139 | inactive: -0.061 | inactive: -0.025 | inactive: -0.04 | – | inactive: 0.046 | inactive: -0.024 | – | inactive: 0.025 | active: -0.408
TMED5 (UniProt Q9Y3A6) | inactive: 0.025 | inactive: 0.133 | inactive: -0.004 | inactive: -0.029 | inactive: 0 | inactive: -0.055 | inactive: -0.081 | inactive: 0.038 | inactive: -0.089 | inactive: -0.058

As entered above:
TMEM109 (UniProt Q9BVC6) | log2 fold change [6]: inactive: -0.036
TMEM205 (UniProt Q6UW68) | log2 fold change (epoxomicin): inactive: 0.035

2 entries from above in a different format.
Target,log2 fold change [1],log2 fold change (volasertib),log2 fold change [2],log2 fold change (epoxomicin),log2 fold change [3],log2 fold change [4],log2 fold change [5],log2 fold change (rosiglitazone),log2 fold change [6],log2 fold change [7]
TMX3 (UniProt Q96JJ7),inactive: 0.031,inactive: -0.025,inactive: 0.013,inactive: 0.014,inactive: 0.01,inactive: 0.004,inactive: -0.011,inactive: -0.003,inactive: 0.017,inactive: 0.048
TM9SF1 (UniProt O15321),inactive: -0.216,inactive: -0.232,inactive: -0.039,inactive: -0.024,inactive: -0.031,inactive: -0.04,inactive: 0.028,inactive: 0.092,inactive: -0.05,inactive: -0.179
